Reference: the supplement of paper PMC12542422
Counter-ions that a name gives are not always drawn. ± gives the standard deviation of the averaged measurements. The list shows a part of the results. These are raw signals, not scaled to a control.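 HeLa cells imaged for ribosome-assembly readouts (ENP1 staining with or without export block, or inducible tagged ribosomal protein reporters); machine learning classified each cell's signal location against solvent (DMSO) controls. Hits exceeded the DMSO false-positive mean by five standard deviations, then were visually confirmed; three biological replicates.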

Assays:
[1] = test system: HeLa K (ENP1 immunofluorescence, +LMB); assay: fraction of cells with nucleolar or nucleolar/nucleoplasmic ENP1 signal (MainHitrate); higher = more cells with nucleolar/nuclear readout signal (for ENP1 -LMB: less RNAPI inhibition; for +LMB ENP1 and RP reporters: stronger nuclear/nucleolar retention, i.e. ribosome biogenesis defect); settings: concentration: 1 µM; treatment time: 6 h; ENP1 +LMB; leptomycin B: 20 nM, last 1.5 h
[2] = test system: HeLa K (ENP1 immunofluorescence, no LMB); assay: as above; settings: concentration: 1 µM; treatment time: 6 h; ENP1 -LMB; leptomycin B: none
HeLa RPS2-YFP reporter = assay: fraction of reporter-positive cells with nuclear (nucleolar or nucleolar/nucleoplasmic) RPS2-YFP (MainHitrate); higher = more cells with nucleolar/nuclear readout signal (for ENP1 -LMB: less RNAPI inhibition; for +LMB ENP1 and RP reporters: stronger nuclear/nucleolar retention, i.e. ribosome biogenesis defect); settings: concentration: 1 µM; treatment time: 6 h
HeLa RPL29-GFP reporter = assay: fraction of reporter-positive cells with nuclear (nucleolar or nucleolar/nucleoplasmic) RPL29-GFP (MainHitrate); higher = more cells with nucleolar/nuclear readout signal (for ENP1 -LMB: less RNAPI inhibition; for +LMB ENP1 and RP reporters: stronger nuclear/nucleolar retention, i.e. ribosome biogenesis defect); settings: concentration: 1 µM; treatment time: 6 h

SMILES | fraction [1] | fraction [2] | fraction of reporter-positive cells with nuclear (HeLa RPS2-YFP reporter) | fraction of reporter-positive cells with nuclear (HeLa RPL29-GFP reporter)
COc1nc(N)nc2c1ncn2[C@@H]1O[C@H](CO)[C@@H](O)[C@@H]1O [Nelarabine (Arranon)] | 0.0562 ± 0.049 | 0.9977 ± 0.0039 | 0.113 ± 0.069 | 0.197 ± 0.052
CCOC(=O)[C@H](CCc1ccccc1)N[C@H]1CS[C@H](c2cccs2)CN(CC(=O)O)C1=O [Temocapril HCl] | 0.0682 ± 0.085 | 0.9959 ± 0.007 | 0.0921 ± 0.043 | 0.231 ± 0.055
CC(C)NCC(O)c1ccc(NS(C)(=O)=O)cc1 (centres undefined) [Sotalol (Betapace)] | 0.114 ± 0.14 | 0.991 ± 0.015 | 0.1 ± 0.075 | 0.228 ± 0.1
Cc1[nH]c(=O)c(C#N)cc1-c1ccncc1 [Milrinone (Primacor)] | 0.0796 ± 0.1 | 0.991 ± 0.016 | 0.117 ± 0.12 | 0.239 ± 0.084
CCCc1nc2c(C)cc(-c3nc4ccccc4n3C)cc2n1Cc1ccc(-c2ccccc2C(=O)O)cc1 [Telmisartan (Micardis)] | 0.0875 ± 0.1 | 0.998 ± 0.0034 | 0.0875 ± 0.06 | 0.205 ± 0.067
C[C@]12C=CC(=O)C=C1CC[C@@H]1[C@@H]2C(=O)C[C@@]2(C)[C@H]1CC[C@]2(O)C(=O)CO [Prednisone (Adasone)] | 0.0858 ± 0.09 | 0.9985 ± 0.0026 | 0.0899 ± 0.05 | 0.2 ± 0.052
COc1ccc(CN2CCN(C(c3ccc(F)cc3)c3ccc(F)cc3)CC2)c(OC)c1OC [Lomerizine HCl] | 0.0459 ± 0.05 | 0.986 ± 0.024 | 0.117 ± 0.096 | 0.221 ± 0.061
CCCc1cc(C(N)=S)ccn1 [Protionamide (Prothionamide)] | 0.131 ± 0.18 | 0.993 ± 0.012 | 0.109 ± 0.033 | 0.223 ± 0.067
CCCCC[C@H](O)/C=C/[C@H]1[C@H](O)CC(=O)[C@@H]1CCCCCCC(=O)O [Alprostadil (Caverject)] | 0.0796 ± 0.081 | 0.9972 ± 0.0049 | 0.0989 ± 0.07 | 0.215 ± 0.054
N[C@@H](Cc1cc(I)c(Oc2ccc(O)c(I)c2)c(I)c1)C(=O)O [Liothyronine Sodium] | 0.124 ± 0.14 | 0.985 ± 0.026 | 0.128 ± 0.098 | 0.204 ± 0.08
CCN1CC(CCN2CCOCC2)C(c2ccccc2)(c2ccccc2)C1=O (centres undefined) [Doxapram HCl] | 0.0985 ± 0.13 | 0.988 ± 0.021 | 0.102 ± 0.11 | 0.199 ± 0.02
CCOC(=O)C1=C(C)NC(C)=C(C(=O)OC)C1c1cccc(Cl)c1Cl (centres undefined) [Felodipine (Plendil)] | 0.149 ± 0.22 | 0.991 ± 0.016 | 0.0954 ± 0.084 | 0.248 ± 0.07
COC(=O)/C=C/C(=O)OC [Dimethyl Fumarate] | 0.0461 ± 0.044 | 0.989 ± 0.019 | 0.0977 ± 0.061 | 0.189 ± 0.032
C[N+](C)(C)CCO.[Cl-] [Choline Chloride] | 0.0656 ± 0.069 | 0.977 ± 0.041 | 0.117 ± 0.082 | 0.232 ± 0.053
c1ccc2[nH]c(-c3cscn3)nc2c1 [Thiabendazole] | 0.128 ± 0.16 | 0.999 ± 0.0018 | 0.083 ± 0.021 | 0.21 ± 0.083
NCCC(O)(P(=O)(O)O)P(=O)(O)O [Pamidronate Disodium] | 0.0864 ± 0.044 | 0.9987 ± 0.0023 | 0.0917 ± 0.062 | 0.237 ± 0.053
CCN[C@H]1C[C@H](C)S(=O)(=O)c2sc(S(N)(=O)=O)cc21 [Dorzolamide HCL] | 0.153 ± 0.13 | 0.9989 ± 0.0018 | 0.103 ± 0.074 | 0.212 ± 0.055
COc1ccc2cc([C@H](C)C(=O)O)ccc2c1 [Naproxen (Aleve)] | 0.163 ± 0.12 | 0.9987 ± 0.0023 | 0.128 ± 0.087 | 0.21 ± 0.063
CN(C)c1ccc(O)c2c1C[C@H]1C[C@H]3[C@H](N(C)C)C(O)=C(C(N)=O)C(=O)[C@@]3(O)C(O)=C1C2=O [Minocycline HCl] | 0.0611 ± 0.089 | 0.99 ± 0.017 | 0.116 ± 0.081 | 0.284 ± 0.1
CCc1oc2ccccc2c1C(=O)c1cc(Br)c(O)c(Br)c1 [Benzbromarone] | 0.0721 ± 0.1 | 0.972 ± 0.049 | 0.131 ± 0.092 | 0.208 ± 0.083
COc1cc2c(cc1O)CC[C@@H]1[C@@H]2CC[C@]2(C)[C@@H](O)CC[C@@H]12 [2-Methoxyestradiol] | 0.113 ± 0.14 | 0.993 ± 0.011 | 0.158 ± 0.089 | 0.241 ± 0.07
COc1cc(/C=C/C(=O)N2CCN(CC(=O)N3CCCC3)CC2)cc(OC)c1OC [Cinepazide maleate] | 0.0607 ± 0.077 | 0.992 ± 0.013 | 0.159 ± 0.1 | 0.211 ± 0.07
CC(C(=O)O)c1ccc(C(=O)c2cccs2)cc1 (centres undefined) [Suprofen (Profenal)] | 0.134 ± 0.18 | 0.9982 ± 0.003 | 0.109 ± 0.077 | 0.206 ± 0.076
NC[C@H](O)c1ccc(O)c(O)c1 [Noradrenaline bitartrate monohydrate (Levophed)] | 0.119 ± 0.18 | 0.975 ± 0.044 | 0.119 ± 0.093 | 0.206 ± 0.07
Cc1ccnc2c1NC(=O)c1cccnc1N2C1CC1 [Nevirapine (Viramune)] | 0.11 ± 0.13 | 0.9975 ± 0.0043 | 0.116 ± 0.088 | 0.206 ± 0.063
NC(=O)N1c2ccccc2CC(=O)c2ccccc21 [Oxcarbazepine] | 0.127 ± 0.12 | 0.9987 ± 0.0022 | 0.129 ± 0.07 | 0.196 ± 0.053

Some entries already given with just fraction [2] and fraction [1]:
SMILES	fraction [2]	fraction [1]
CCOC(=O)[C@H](CCc1ccccc1)N[C@H]1CS[C@H](c2cccs2)CN(CC(=O)O)C1=O [Temocapril HCl]	0.9959 ± 0.007	0.0682 ± 0.085
CC(C)NCC(O)c1ccc(NS(C)(=O)=O)cc1 (centres undefined) [Sotalol (Betapace)]	0.991 ± 0.015	0.114 ± 0.14
